From the supplement of paper PMC9549374 come the findings set out here.

Each structure is given as a SMILES string. Some of the results follow. No stated cut-off is given here; in the data, active = 2-fold of DMSO or more and inactive = the rest. Single values of this set are uncertain. Some low values are a fixed figure set by the source, not a measured ratio.

For this test, the system named is CM7/1-hgem mouse ES cell-derived cardiomyocytes. Kind of test: maximal number of mAG-hGem(1/110)-positive cardiomyocytes over 96 h, fold-change vs DMSO; higher = more cardiomyocyte cell cycle activity. To be noted: 1 µM; 96 (max over 12 h time points) h.
Consider `CN1CCC(=C2c3ccccc3Sc3ccccc32)CC1`, for which the maximal number is inactive: 1.

With `O=C(O)c1cc(O)c(O)c(O)c1`, the maximal number is inactive: 0.

With `CC(C)CCC[C@@H](C)[C@H]1CC[C@H]2[C@@H]3C[C@@H](O)[C@@]4(O)C[C@@H](O)CC[C@]4(C)[C@H]3CC[C@]12C` [CHOLESTAN-3beta,5alpha,6beta-TRIOL], the maximal number is inactive: 1.

For `C=CCCCCCCCCCCCC(O)CC(O)CO` (stereo not drawn), the maximal number was inactive: 1.

Turning to `C[C@]12CCC(=O)C=C1[C@@H]1C[C@@H]1[C@H]1[C@@H]3[C@@H]4C[C@@H]4[C@@]4(CCC(=O)O4)[C@@]3(C)CC[C@@H]12`, the maximal number is inactive: 1.

Regarding `COC(=O)[C@@]1(C)CCC[C@]2(C)c3ccc(O)c(C(C)C)c3CCC12` (stereo partly drawn), the maximal number is inactive: 1.

As for `C[C@H](CCC(=O)O)[C@H]1CC[C@H]2[C@@H]3CC[C@@H]4CCCC[C@]4(C)[C@H]3CC[C@]12C`, the maximal number is inactive: 1.

Regarding `CC(=O)c1cc2c(cc1O)OC(C)(C)C=C2`, the maximal number is inactive: 1.

As to `COc1ccc2c(=O)c(CC(=O)O)coc2c1`, the maximal number was inactive: 1.

In the case of `CC(C)CCCC(C)NC(C)C` (stereo not drawn), the maximal number is inactive: 1.

Turning to `COC(=O)C[C@H]1C2(C)CC34OC5(C)O[C@@]6([C@H](OC(C)=O)C(OC(C)=O)[C@]7(C)C(/C(=C(/O)C(C)C)C(=O)O[C@H]7c7ccoc7)[C@@]6(O5)[C@H](OC(C)=O)[C@@]3(O)C2OC(=O)C(C)C)[C@]14C` (stereo partly drawn), the maximal number is inactive: 1.

Take `COC(=O)/C(=C1/OC(=O)C(c2ccccc2)=C1O)c1ccccc1`: the maximal number was inactive: 1.

As for `CCN(CCCCOC(=O)c1ccc(OC)c(OC)c1)C(C)Cc1ccc(OC)cc1` (stereo not drawn), the maximal number was inactive: 1.

Turning to `Oc1ccc2c(c1)OC[C@]1(O)Cc3cc(O)c(O)cc3[C@H]21`, the maximal number is inactive: 1.

Regarding `O=C1CC2(CCCC2)CC(=O)N1CCCCN1CCN(c2ncccn2)CC1`, the maximal number is inactive: 1.

For the molecule `CC(=O)O[C@@H]1C[C@H]2C(C)(C)C(=O)CC[C@]2(C)[C@H]2CC[C@@]3(C)[C@H](c4ccoc4)OC(=O)[C@H]4O[C@]43[C@@]21C`, the maximal number was inactive: 1.

As for `Cc1c(-c2cnccn2)ssc1=S`, the maximal number was inactive: 1.

As for `[O-][n+]1cccc(CO)c1`, the maximal number was inactive: 1.

On to `O=C(O)[C@@H]1[C@H]2C[C@H]3c4[nH]c5ccccc5c4CCN3C[C@@H]2CC[C@@H]1O`, for which the maximal number is inactive: 1.

For the molecule `COc1ccc(-c2c(O)c3c(OC)c4c(cc3oc2=O)OC(C)(C)C=C4)cc1`, the maximal number was inactive: 1.

With `CCCC1O[C@@H]2C[C@H]3[C@@H]4CCC5=CC(=O)C=C[C@]5(C)[C@H]4[C@@H](O)C[C@]3(C)[C@]2(C(=O)CO)O1` (stereo partly drawn), the maximal number was inactive: 1.

In the case of `C=C(C)[C@H]1COc2cc3oc(=O)ccc3cc2O1`, the maximal number was inactive: 1.

For `CC1=CCc2c(cc3oc(C)cc(=O)c3c2O)OC1`, the maximal number is inactive: 1.

In the case of `CCc1nn(CCCN2CCN(c3cccc(Cl)c3)CC2)c(=O)n1CCOc1ccccc1`, the maximal number was inactive: 1.

With `C[C@H]1COc2c(C3(N)CC3)c(F)cc3c(=O)c(C(=O)O)cn1c23`, the maximal number is inactive: 1.

Take `O=c1ccc2cc(O)c(O)cc2o1`: the maximal number was inactive: 1.

With `CC(=O)O[C@@H]1CC2C(C)(CC[C@H](O)C2(C)C)C2CC[C@]3(C)C(=CC(=O)O[C@H]3c3ccoc3)C21C` (stereo partly drawn) [3beta-HYDROXYDEOXODIHYDRODEOXYGEDUNIN], the maximal number was inactive: 1.

For `N#C[C@@H]1C[C@@H]2C[C@@H]2N1C(=O)[C@@H](N)C12CC3CC(CC(O)(C3)C1)C2`, the maximal number was inactive: 1.

With `C=C1CCC(C2CC(=O)OC2=O)C(=O)CCC2C1CC2(C)C` (stereo not drawn), the maximal number was inactive: 1.

Take `C=C1c2cccc(O)c2C(=O)C2=C(O)[C@]3(O)C(=O)C(C(N)=O)=C(O)[C@@H](N(C)C)[C@@H]3[C@@H](O)[C@H]12`: the maximal number was inactive: 1.

`COC(=O)C[C@H]1C(C)(C)C2(O)OC34CC2C(=O)[C@]1(C)C3CC[C@]1(C)C4=CC(=O)O[C@H]1c1ccoc1` (stereo partly drawn) [8beta-HYDROXYCARAPIN, 3,8-HEMIACETAL]: the maximal number was inactive: 1.

Take `COC(=O)C[C@H]1C(C)(C)[C@@H](O)[C@@H]2CC3=C4C=C(OC)O[C@@H](c5ccoc5)[C@]4(C)CCC3[C@@]1(C)C2=O` (stereo partly drawn) [3-DEOXO-3beta-HYDROXYMEXICANOLIDE 16-ENOL ETHER]: the maximal number was inactive: 1.

In the case of `O=C(O)Cc1cc(I)c(Oc2ccc(O)c(I)c2)c(I)c1`, the maximal number is active: 2.

With `COc1cc(O)c(C(C)=O)c(OC)c1`, the maximal number is inactive: 0.

In the case of `CCCCC(CC)COC(=O)C(C#N)=C(c1ccccc1)c1ccccc1` (stereo not drawn), the maximal number is inactive: 1.

`Cc1cc(O)c2c(c1)C(=O)c1cc(O)cc(O)c1C2=O`: the maximal number was inactive: 0.

Take `O=C(O)COC(=O)Cc1ccccc1Nc1c(Cl)cccc1Cl`: the maximal number is inactive: 1.

Regarding `CC1CCc2cc(F)cc3c(=O)c(C(=O)O)cn1c23` (stereo not drawn), the maximal number was inactive: 1.
